# Test results published in US20200308546A1, “ENGINEERED CARDIOMYOCYTES AND USES THREOF” (THE J. DAVID GLADSTONE INSTITUTES, A TESTAMENTARY TRUST …, priority 2016, published 2020).
# At least one structure is not confirmed: it was looked up by name or label, or the drawing left a doubt.
# How the values were obtained:
# G296S cardiomyocytes = assay: Traction force microscopy of paced engineered cardiomyocytes (force generation, beat rate), GATA4 G296S; type: cell-based, human; settings: TFM, cells responding to 1 Hz pacing, FIG. 93
# iWT cardiomyocytes = assay: Traction force microscopy of paced engineered cardiomyocytes (force generation, beat rate), iWT; type: cell-based, human; settings: TFM, cells responding to 1 Hz pacing, FIG. 93
# Source text: FIG. 93 is a set of graphs showing force generation of engineered cardiomyocytes treated with a PI3K inhibitor (left) or PI3K activator (right). Relative change in force generation between iWT (black) and G296S (grey) cardiomyocytes after inhibition (circle) or activation (triangle) of P13K signaling. Traction force microscopy (TFM) measurements of CMs responding accurately to 1 Hz pacing. Data are mean±sem, *,p<0.05, **,p<0.005, ***p<0.0005 (Mann-Whitney test).
# FIG. 94 is a schematic illustrating the postulated protein-protein interaction in wild-type (top) and G296S mutant (bottom) cardiomyocytes. Beat rate measurements between iWT (black) and G296S (grey) cardiomyocytes after inhibition (circle) or activation (triangle) of P13K signaling. TFM measurements of cardiomyocytes responding accurately to 1 Hz pacing. Data are mean±sem, *,p<0.05, ** p<0.005, ***p⋅<0.0005 (Mann-Whitney test).
# A “scale-free” network (Barabasl and Albert, ⋅1999) of 716 nodes connected by 2,353 edges with an average 6.6 neighbors and path length of 4.3 (FIG. 90). Nodes were connected by edges representing physical (protein-protein) or functional (genetic, co-expression, co-occurrence) interactions. At least 5 sub-networks connected through 20 regulatory “hubs” were identified. […]
compound,measurement,setting,value
O=c1cc(N2CCOCC2)oc2c(-c3ccccc3)cccc12 [LY294002],force generation,G296S cardiomyocytes,insensitive or had an increase in force production
same,force generation,iWT cardiomyocytes,significant decrease in force generation
